# Results reported in PubChem BioAssay AID624291 (National Center for Advancing Translational Sciences (NCATS), 2012).
# About 220 (0.063%) of roughly 350,000 compounds were called active. The inconclusive results got no clear call from the source; some entries with a clear call stand among them for comparison. The call rests on the fitted dose curve; in most records, active means well fitted activation curve with a large enough effect; inconclusive means small, poorly fitted or top-dose-only effect; inactive means no such curve, though single readings can be large or run the other way. Potencies of inconclusive entries are doubtful fits and often do not repeat.
# Experiment: qHTS for Activators of Integrin-Mediated Alleviation for Muscular Dystrophy; further: nearly all actives have a fitted effect of over 60% in size;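 on activation: 100% = response of the positive control SU9516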
# Conditions: alpha7betagal myoblasts, beta-gal FDG fluorescence, 48 h; activation: at 38.3 µM (top of the series)
# Summary of the method: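 alpha7betagal+/- myoblasts (passage 13, 250/well) treated 48 h at 37C with compounds at 1:260 dilution of DMSO stock. Lysed, then beta-galactosidase activity read as FDG fluorescence (ex 480/em 540) after 30 min, with pre-read for autofluorescence.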
# Potency means the concentration at half of the fitted maximal effect.
SMILES,Potency,activation
O=C(CC12CC3CC(CC(C3)C1)C2)NCC(=O)OCc1cc(=O)oc2ccc3ccccc3c12,"inconclusive: 0.501 µM [activator, full curve, poor fit]",–
CN(C)CCCn1c(NCc2ccc3c(c2)OCO3)nc2ccccc21,"inconclusive: 3.98 µM [activator, single point]",–
CN(CCC1CCCCO1)C(=O)CCc1nnc(CCCCc2ccccc2)o1 (configuration not stated),"inconclusive: 17.8 µM [activator, partial curve, poor fit]",–
COc1ccc(C(=O)NCC2CCCCC2)cc1S(=O)(=O)N1CCOCC1,"inconclusive: 28.2 µM [activator, single point]",–
CCCCN(C)C(=S)Nc1ccsc1C(=O)OC,"inconclusive: 5.01 µM [activator, single point]",–
C=C(C)c1cccc(C(C)(C)NC(=O)Nc2ccc(C(N)=O)cc2)c1,inactive,–
C/C(=N\Nc1cc(Cl)nc(C)n1)c1ccc(C)cc1,"inconclusive: 10 µM [activator, partial curve, poor fit]",–
S=C(Nc1ccc2c(c1)OCO2)N1CCN(Cc2ccco2)CC1,inactive,–
C=CCNC(=O)/C(C#N)=C/c1c(N2CCCCCC2)nc2ccccn2c1=O,"inconclusive: 28.2 µM [activator, single point]",–
S=C(NN=C1CCCCCC1)Nc1ccc(Cl)cc1,inactive,–
Cc1c(C)c2cc(Cl)c(OCC(=O)NC3CC(C)(C)NC(C)(C)C3)cc2oc1=O,"inconclusive: 28.2 µM [activator, single point]",–
CC(=O)Nc1ccc(NC(=O)Nc2cccc3ccccc23)cc1,inactive,–
CCOc1ccc(CCNC(=O)c2cnccn2)cc1OCC,"inconclusive: 20 µM [activator, single point]",–
C[C@H]1CCC[C@@]2(O[C@@H](CCO)C[C@H](O)[C@H]2O)O1,inactive,–
COc1cccc(NC(=O)CCNC(=O)N2CC(=O)Nc3ccccc32)c1,"inconclusive: 5.01 µM [activator, single point]",–
COc1ccc(OC)c(NC(=O)CSc2nc(-c3ccccc3)cc(=O)[nH]2)c1,"inconclusive: 12.6 µM [activator, single point]",–
O=C(c1ccccc1)c1cncc(Br)c1,"inconclusive: 28.2 µM [activator, single point]",–
O=[N+]([O-])c1cccc(C=Nc2cccc3ccccc23)c1O,inactive,–
COc1cccc(CC(=O)Nc2ccc(N3CCOCC3)c(S(=O)(=O)Nc3ccccc3OC)c2)c1,"inconclusive: 11.2 µM [activator, partial curve, poor fit]",–
O=C(Cc1c(F)cccc1Cl)NNC(=O)Nc1ccc2c(c1)OCO2,"inconclusive: 28.2 µM [activator, single point]",–
Cc1ccc([N+](=O)[O-])cc1NC(=O)CCCOc1ccccc1,"inconclusive: 22.4 µM [activator, single point]",–
COC(=O)c1ccccc1NC(=O)CN1CCN(c2ccccn2)CC1,inactive,–
O=C(Nc1ccc2c(c1)CCC2)c1cnccn1,inactive,–
CCc1cc(=O)oc2cc(OC(C)=O)cc(OC(C)=O)c12,inactive,–

# Pulled by structure from above, 2 records:
SMILES,Potency,activation
S=C(Nc1ccc2c(c1)OCO2)N1CCN(Cc2ccco2)CC1,inactive,–
O=C(CC12CC3CC(CC(C3)C1)C2)NCC(=O)OCc1cc(=O)oc2ccc3ccccc3c12,"inconclusive: 0.501 µM [activator, full curve, poor fit]",–

# Next structures

SMILES,Potency,activation
S=C(NC1CC1)N1CCc2ccccc2C1,"inconclusive: 0.501 µM [activator, full curve, poor fit]",–
O=C(NC(=S)NC1C2CC3CC(C2)CC1C3)C12CC3CC(CC(C3)C1)C2 (configuration not stated),inactive,–
CN(C)S(=O)(=O)c1cc(NC(=O)CNCc2ccc(F)cc2)ccc1Cl,–,inconclusive: 50% [activator]
CCOc1ccccc1NC(=O)CC1Nc2ccccc2NC1=O (configuration not stated),inactive,–
CCCCN1C(=O)C(CC(=O)NCc2cccc3ccccc23)CC(C(=O)N(CC)CC)=C1C (configuration not stated),inactive,–
Cc1ccc(NC(=O)C2CCCC2)cc1S(=O)(=O)N1CCOCC1,"inconclusive: 5.62 µM [activator, single point]",–
COc1ccc(S(=O)(=O)N2CCCCCC2)cc1Br,"inconclusive: 4.47 µM [activator, single point]",–
CCN(CC)CCNC(=O)c1ccc(NC(=O)c2cccc(S(=O)(=O)N3CCc4ccccc43)c2)cc1,inactive,–
CCCCc1cc(=O)oc2cc(OC(C)C(=O)NCc3ccccn3)c(Cl)cc12 (configuration not stated),"inconclusive: 5.01 µM [activator, single point]",–
Cc1cc2ccccc2n2c(SCC(=O)NCc3cccs3)nnc12,"inconclusive: 12.6 µM [activator, partial curve]",–
CC(C)(C)c1ccc(C(=O)N2CCC(C(=O)NCC3CCCO3)CC2)cc1 (configuration not stated),inactive,–
O=C(COc1ccc(S(=O)(=O)NC2CCCCC2)cc1Cl)NCC1CCCO1 (configuration not stated),"inconclusive: 31.6 µM [activator, single point]",–
CCOC(=O)N1CCN(CCC(=O)Nc2cccc(Br)c2)CC1,inactive,–
O=C(Nc1ccc2c(c1)C(=O)OC2)c1ccc(Cl)cc1,"inconclusive: 11.2 µM [activator, single point]",–
O=[N+]([O-])c1cc(S(=O)(=O)Nc2ccc(Cl)cc2)ccc1N/N=C/c1ccncc1,"inconclusive: 5.01 µM [activator, single point]",–
Cc1nn2c3c(cnc2c1-c1ccccc1)C(=O)CCC3,inactive,–
Cn1c(=O)c2c(nc(CN3CCN(C(c4ccccc4)c4ccccc4)CC3)n2CCCO)n(C)c1=O,"inconclusive: 2.51 µM [activator, single point]",–
CC(C)(C)C(=O)COC(=O)C1=NN(c2ccccc2)C(=O)CC1,"inconclusive: 3.16 µM [activator, partial curve]",–
O=S(=O)(Nc1cccc(S(=O)(=O)N2CCCCCC2)c1)c1ccccc1,inactive,–
Cc1ccc(/C=C/C(=O)NC(=S)N2CCN(c3ccc(F)cc3)CC2)cc1,"inconclusive: 28.2 µM [activator, single point]",–
COC(=O)c1scc(C)c1NC(=O)c1cccc(C#N)c1,"inconclusive: 11.2 µM [activator, partial curve, poor fit]",–
Cc1cc(-c2nnc(SCC(=O)Nc3ccc(Cl)cn3)n2N)n[nH]1,"inconclusive: 1.12 µM [activator, partial curve, poor fit]",–
CCOc1ccc(CN(C)CCc2ccccn2)cc1,"inconclusive: 5.01 µM [activator, single point]",–
CCN(CC)C(=O)Cn1c(=O)n(-c2ccccc2)c(=O)c2sccc21,"inconclusive: 0.794 µM [activator, full curve, poor fit]",–

SMILES,Potency,activation
Cc1ccc(NC(=O)CC(=O)Nc2ccc(C)c(C)c2)cc1C,inactive,–
CC1CCCCC1NC(=O)CCNS(=O)(=O)c1ccc(Cl)cc1 (configuration not stated),"inconclusive: 28.2 µM [activator, single point]",–
COc1ccc(C2NC(=O)Cc3cc(OC)c(OC)cc32)cc1OC (configuration not stated),"inconclusive: 0.501 µM [activator, partial curve, poor fit]",–
CSc1nsc(SC)c1NC(=O)Nc1ccccn1,–,inactive: -5.52% [at 7.66 µM]
COc1ccccc1CNC(=O)C(=O)NCC1OCCCN1S(=O)(=O)c1cccs1 (configuration not stated),"inconclusive: 5.01 µM [activator, single point]",–
Cn1cccc1C1CCCN1CC(=O)Nc1ccc(F)c(F)c1F (configuration not stated),"inconclusive: 0.501 µM [activator, full curve, poor fit]",–
CCOc1ccc(-c2c(C(=O)N/N=C/c3ccc(C)s3)nnn2-c2nonc2N)cc1,inactive,–
O=C(CCl)N(Cc1ccccc1)c1ccccc1,inactive,–
CCCCOc1cccc(C2/C(=C(/O)c3ccc4c(c3)CC(C)O4)C(=O)C(=O)N2CCN2CCOCC2)c1 (configuration not stated),"inconclusive: 1.58 µM [activator, single point]",–
Cc1cccc(/C(N)=N/OC(=O)c2ccc(F)cc2)c1,inactive,–
Cc1nc(NC(=O)c2ccncc2)sc1C(=O)N(C)C,"inconclusive: 4.47 µM [activator, single point]",–
O=C(Cn1c(=O)[nH]c2ccccc2c1=O)Nc1ccc2c(c1)OCCO2,"inconclusive: 2.82 µM [activator, partial curve, poor fit]",–
N#C/C(=N\Nc1ccc(S(=O)(=O)N2CCCCC2)cc1)C(N)=S,inactive,–
CC1(C)Oc2ccc3ccc(=O)oc3c2/C(=C/N)C1=O,"inconclusive: 12.6 µM [activator, single point]",–
COc1ccc(OC)c(Nc2nc(=O)c3cccnc3s2)c1,inactive,–
Nc1nc2ccc(S(=O)(=O)c3ccc4nc(N)sc4c3)cc2s1,inactive,–
CSCCC(NC(=O)c1ccccc1Cl)C(=O)N1CCN(C(c2ccccc2)c2ccccc2)CC1 (configuration not stated),"inconclusive: 0.794 µM [activator, full curve, poor fit]",–
COc1ccc(NC(=O)c2cc(-c3ccccc3)nc3c2cnn3C(C)C)c(OC)c1,"inconclusive: 5.01 µM [activator, single point]",–
O=C(NCc1ccc(F)cc1)C1CCCN(c2cnccn2)C1 (configuration not stated),"inconclusive: 14.1 µM [activator, partial curve, poor fit]",–
Cc1sc2nc(CN3CCOCC3)nc(NS(=O)(=O)c3cc(Cl)ccc3Cl)c2c1C,inactive,–
CCN(CC)CC(O)CN(c1ccccc1)S(=O)(=O)c1ccc2ccccc2c1 (configuration not stated),"inconclusive: 14.1 µM [activator, partial curve, poor fit]",–
CCCCCCCCC(=O)N1CCN(c2cc3c(cc2F)c(=O)c(C(=O)O)cn3CC)CC1,"inconclusive: 5.01 µM [activator, single point]",–
COc1ccc(NC(=S)NC(=O)/C=C/c2ccco2)cc1,inactive,–
CCN(CC)c1ccc(/C=N/NC(=S)NC)c(O)c1,inactive,–

# Some of the entries so far, tab-delimited.
SMILES	Potency	activation
N#C/C(=N\Nc1ccc(S(=O)(=O)N2CCCCC2)cc1)C(N)=S	inactive	–
CC1(C)Oc2ccc3ccc(=O)oc3c2/C(=C/N)C1=O	inconclusive: 12.6 µM [activator, single point]	–
COc1ccc(OC)c(Nc2nc(=O)c3cccnc3s2)c1	inactive	–
